PubChem BioAssay AID651595 (National Center for Advancing Translational Sciences (NCATS), 2012)
Hit rate of the full screen: of about 1,100 compounds, fewer than 10 were called active. Another 6% or so got no clear call; they are omitted. Calls follow the shape of the dose curve; as a rule, active = well fitted cell-killing curve with a large enough effect; inconclusive = small, poorly fitted or top-dose-only effect; inactive = flat fitted curve, though single readings scatter. The list shows a part of the results.

experiment: qHTS of Nrf2 Activators: Hit Validation in Cytotox Assay; settings: Cell viability counter-screen for Nrf2 activator hits; series mostly up to 46.1 µM; activity change, negative = cytotoxicity: at the top concentration;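 also: compound exposure lasted 24 hours before the ATP readout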; as to activity change, negative = cytotoxicity: 0% is about no effect
Description: Many diseases have some form of oxidative stress injury and ties to inflammation, causing a host of problems for the patient. The antioxidant response element (ARE) plays an important role in alleviating the harmful effects of oxidative stress. The antioxidant response element (ARE) is a transcriptional regulatory element involved in the activation of genes coding for a number of antioxidant proteins and detoxifying enzymes. These enzymes work in concert to protect tissues from oxidative insults and chemical toxicities in human hepatocytes and immune cells. The protective effects of ARE activation are primarily triggered through Nrf2 (NF-E2-related factor) binding to and activating AREs. It is known that Nrf2 controls the production of over 250 antioxidant and detoxification proteins (Hu et al., 2006), thereby protecting tissues by increasing cellular antioxidant content and suppressing inflammatory signaling pathways. The transcription factor Nrf2 is a central link between oxidative chemicals, such as phenolic antioxidants and electrophilic compounds, and the activation of ARE. Nrf2 levels are constitutively low as a consequence of its interaction with Keap1, which targets its degradation (Zipper and Mulcahy, 2002). Electrophiles react with key cysteine residues in Keap1, releasing Nrf2 and allowing its translocation to the nucleus. Once within the nucleus, Nrf2 complexes with coactivators such as p300, and binds to the AREs to induce gene transcription of cytoprotective enzymes, resulting in the prevention of toxicity. Activation of Nrf2 protects tissues by increasing cellular antioxidant content and suppressing inflammatory signaling pathways. Identifying novel and potent Nrf2 activators by using the AREc32 cell line to detect ARE activation by small molecules will lead to the identification and development of probes to study protective pathways in multiple tissues. These specific probes are essential to study the ARE pathway, and eventually to determine whether this pathway does activate genes that could protect against a host of diseases, including cardiovascular diseases, obesity, diabetes, Alzheimer's, and Parkinson's disease.
This project's aim is to identify novel and potent Nrf2 activators by using the AREc32 cell line to detect ARE activation by small molecules, which will lead to the identification and development of probes to study the ARE pathway. Cytotoxic compounds are flagged as active, and inactivity is desired in this assay.
NIH Chemical Genomics Center [NCGC]
NIH Molecular Libraries Probe Centers Network [MLPCN]
Assay Submitter (PI): Curtis Klaassen, University of Kansas Medical Center
Cell viability after compound treatment was measured using a luciferase-coupled ATP quantitation assay (CellTiter-Glo, Promega) in AREc32_fluc cells. The change of intracellular ATP content indicates the number of metabolically competent cells after compound treatment. AREc32_fluc cells were harvested from T225 flask and resuspended in phenol red free OPTI-MEM medium with 5% FBS. Then 5 microL of 200,000 cells/ml resuspended cells was dispensed into each well of white, solid bottom, 1536-well tissue culture-treated plates using a Multidrop Combi dispenser. After overnight culture at 37 degrees C with 5% CO2, a total of 23 nL of compounds at 7 selected concentrations from the cherry pick or positive control (40 uM stock of CDDO-IM and 2 mM of tBHQ) in DMSO was transferred to each well of the assay plate using a pintool (Kalypsys, San Diego, CA), and the plates were further incubated at 37 degrees C with 5% CO2 for 24 hours. After that, 4 microL of CellTilter-GloTM luminescent substrate mix (Promega) was added to each well. The plate was incubated at room temperature for 30 minutes. The plates were measured on a ViewLux plate reader (PerkinElmer) with clear filter.
Potency is read from the fitted curve at half-maximal effect.

SMILES	activity change, negative = cytotoxicity	Potency
CCOc1ccsc1C(=O)NNC(=O)c1ccco1	inactive: 1.67%	
Cc1nc(NCc2ccco2)nc2c1C(=O)CC(C)C2 (centres undefined)	inactive: -6.77%	
Nc1nonc1N/N=C/c1c(O)ccc2ccccc12	inactive: 8.84%	
Cc1cc(NC(=O)c2ccccc2)nc2c1c(=O)oc1ccccc12	inactive: 1.23%	
O=[N+]([O-])c1cccc2ccc(/C=C/c3ccc(F)cc3)nc12	inactive: -1.49%	
O=C(NCC1CCCO1)c1ccc([N+](=O)[O-])o1 (centres undefined)	inactive: -12.8%	
COc1ccc(N(CCCN2C(=O)c3cccc4cccc(c34)C2=O)C(=O)c2ccncc2)cc1	inactive: -0.299%	
CCn1nc(C(=O)Nc2cccc3ccccc23)c(Cl)c1Cl	inactive: -0.414%	
CNC(=O)c1ccsc1NC(=O)c1ccc(Cl)s1	inactive: 0.215%	
Cc1cc(C)c(-n2c(SCCS(=O)(=O)c3ccc(F)cc3)n[nH]c2=O)c(C)c1	inactive: 1.99%	
Nc1nc(Nc2cccc(Cl)c2)nc(NCCO)c1[N+](=O)[O-]	inactive: 24.8%	
O=C1C(Cl)=C(N2CCN(c3ccccc3[N+](=O)[O-])CC2)C(=O)c2ccccc21		active: 18.4 µM
CCn1c(=N)n(CC(=O)c2ccco2)c2ccccc21	inactive: 4.65%	
Oc1ccc(Cl)cc1N=Cc1sc2ccccc2c1Cl	inactive: -16.3%	
CCn1c(NC(=O)c2ccccc2)nc2ccccc21	inactive: -5.44%	
CN1C2CCC1/C(=C\c1ccccc1)C(=O)/C2=C\c1ccccc1	inactive: -5.9%	
Oc1ccc2ccccc2c1N=Nc1ccccn1		active: 5.17 µM
CC1CCc2c(cc(-c3ccccc3)n2-c2ccc(C(=O)NC(C)C)cc2)C1 (centres undefined)	inactive: 2.77%	
Cc1cc(Cl)cc2sc(NC(=O)c3ccco3)nc12	inactive: 10.8%	
CCOCCCNC(=O)c1ccc(-n2c(-c3ccccc3)cc3c2CCC(C)C3)cc1 (centres undefined)	inactive: 3.22%	

SMILES	activity change, negative = cytotoxicity	Potency
Cn1c(=O)c2nc(-c3ccccc3)oc2c2ccccc21	inactive: 8.18%	
Clc1ccc(-c2ccnc(-n3cccc3)n2)s1	inactive: 3.8%	
CC(C)N1C/C(=C/c2cccnc2)C(=O)/C(=C/c2cccnc2)C1	inactive: 1.16%	
CSc1nc(Oc2ccc(Cl)cc2)c2sccc2n1	inactive: 7.55%	
CCn1c(/C=C/c2ccccc2)nc2ccccc2c1=O	inactive: -0.439%	
CC(=O)Nc1ccc(S(=O)(=O)c2ccnc3cc(Cl)ccc23)cc1	inactive: 7.02%	
O=C(/C=C/c1cccs1)c1ccco1	inactive: -0.0849%	
O=C(Nc1cc(-c2nc3cc(Cl)ccc3o2)ccc1Cl)c1ccco1	inactive: 2.73%	
O=C(OCC(=O)N1CCCC1)c1cc([N+](=O)[O-])ccc1Cl	inactive: 0.711%	
COCCN(C(=O)COC(=O)/C=C/c1ccccc1Cl)c1c(N)n(Cc2ccccc2)c(=O)[nH]c1=O	inactive: 10.6%	
c1ccc(C2=Nn3c(nnc3-c3ccco3)SC2)cc1	inactive: 6.11%	
C/C(=N\NC(=O)CSc1nc2ccccc2s1)c1ccco1	inactive: 9.7%	
COC(=O)c1ccc2nc(-c3cccc(Cl)c3)c(Cc3ccccc3OC)n2c1	inactive: -9.39%	
CCOC(=O)c1ccsc1NC(=O)CCS(=O)(=O)c1ccccc1	inactive: 17.1%	
O=C1C=C(Nc2cccc(Cl)c2)CC(c2ccco2)C1 (centres undefined)	inactive: 3.61%	
COn1c(-c2ccccc2)nc2c1CCc1c-2no[n+]1[O-]	inactive: 4.9%	
COC(=O)c1ccc2nc(-c3ccc(F)cc3)c(CC3CCCCC3)n2c1	inactive: -1.86%	
O=C1C(=Cc2cccc(Cl)c2)Cc2ccccc21	inactive: -3.65%	
COC(=O)c1sccc1NC(=O)c1c(C)noc1C	inactive: 2.24%	
N#C/C(=C\c1cccs1)Sc1nc2ccccc2s1	inactive: -3.38%	

Among those listed so far, these contain an aryl thioether with sulfur outside any ring.
SMILES	activity change, negative = cytotoxicity	Potency
Cc1cc(C)c(-n2c(SCCS(=O)(=O)c3ccc(F)cc3)n[nH]c2=O)c(C)c1	inactive: 1.99%	
CSc1nc(Oc2ccc(Cl)cc2)c2sccc2n1	inactive: 7.55%	
C/C(=N\NC(=O)CSc1nc2ccccc2s1)c1ccco1	inactive: 9.7%	
N#C/C(=C\c1cccs1)Sc1nc2ccccc2s1	inactive: -3.38%	

Next compounds follow.

SMILES	activity change, negative = cytotoxicity	Potency
O=[N+]([O-])c1cccc(C=NN=Cc2ccccc2O)c1	inactive: 0.601%	
O=c1c2cc3c(=O)n(-c4ccccc4O)c(=O)c3cc2c(=O)n1-c1ccccc1O	inactive: 2.33%	
Brc1ccc(C2=CC(c3ccco3)n3nnnc3N2)cc1 (centres undefined)	inactive: 6.06%	
O=C1N/C(=C\c2ccsc2)C(=O)N1Cc1ccc(F)cc1	inactive: 1.65%	
c1ccc(N2CC3CCc4ccccc4C3=N2)cc1 (centres undefined)	inactive: -0.313%	
COc1cc(NC(=S)Nc2ccccn2)c(OC)cc1Cl	inactive: 1.25%	
Cn1c(CC2C(=O)Nc3ccc(Br)cc32)nc2ccccc2c1=O (centres undefined)	inactive: 0.978%	
Brc1cc2c(cc1/C=N/Nc1nc3ccccc3s1)OCO2	inactive: 2.68%	
S=c1[nH]nc(-c2ccco2)n1/N=C/c1ccc(Br)s1	inactive: 13.9%	
Cc1cc(C)n(S(=O)(=O)/C=C/c2ccccc2)n1	inactive: 23%	
Cc1sc2ncnc(SCc3ccco3)c2c1C	inactive: 4.5%	
O=C(CCN1C(=O)c2cccc3cccc(c23)C1=O)Nc1ccon1	inactive: 9.02%	
O=c1[nH]c(O)c(/C=C2\C=Nc3ccccc32)[nH]1	inactive: 3.31%	
O=C(Nc1cc2nn(-c3ccccc3)nc2cc1Cl)c1ccco1	inactive: 5.66%	
O=[N+]([O-])c1cccc(-c2cnc3ccccc3n2)c1	inactive: 2.66%	
Cc1ccc([N+](=O)[O-])cc1NC(=O)c1ccccc1	inactive: 0.318%	
COC(=O)C(=C/C=C/c1ccco1)C(=O)OC	inactive: -3.27%	
Cc1csc(-c2ccc3cc(Cl)cc(Cl)c3n2)n1	inactive: 4.13%	
O=C(Nc1ccc(OC(F)F)cc1)c1ncc(Cl)c(Cl)c1Cl	inactive: 0.861%	
